{"source": "paper PMC9537309", "key": {"DND1 RRM12 K197A (human)": {"target": "T1, DND1 RRM12 K197A (human) (UniProt Q8IYX4)", "T1 sequence (looked up)": "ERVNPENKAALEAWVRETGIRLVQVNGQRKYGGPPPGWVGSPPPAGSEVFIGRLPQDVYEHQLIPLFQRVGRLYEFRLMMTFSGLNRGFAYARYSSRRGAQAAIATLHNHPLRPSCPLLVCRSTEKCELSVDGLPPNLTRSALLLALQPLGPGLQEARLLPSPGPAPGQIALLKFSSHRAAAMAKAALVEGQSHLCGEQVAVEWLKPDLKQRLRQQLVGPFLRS", "assay": "NMR titration", "details": "RRM2 helix 2 exchange-broadened; NMR: 100 mM potassium phosphate pH 6.6, 1 mM DTT, 298 K (or 20 mM MES pH 6.6, 100 mM NaCl); Supplementary Fig. 3: 25 mM NaCl, 2 mM DTT, pH 6.3, 303 K; recombinant protein; residues 12-235; protein details: N-terminal 6xHis, TEV-cleaved"}, "DND1 RRM12 W215F (human) [1]": {"target": "T2, DND1 RRM12 W215F (human) (UniProt Q8IYX4)", "T2 sequence (looked up)": "T1 sequence (looked up) with A186K, W204F", "assay": "NMR titration", "details": "smaller shift changes than WT; NMR: 100 mM potassium phosphate pH 6.6, 1 mM DTT, 298 K (or 20 mM MES pH 6.6, 100 mM NaCl); Supplementary Fig. 3: 25 mM NaCl, 2 mM DTT, pH 6.3, 303 K; recombinant protein; residues 12-235; protein details: N-terminal 6xHis, TEV-cleaved"}, "DND1 RRM2 (human)": {"target": "T3, DND1 RRM2 (human) (UniProt Q8IYX4)", "T3 sequence (looked up)": "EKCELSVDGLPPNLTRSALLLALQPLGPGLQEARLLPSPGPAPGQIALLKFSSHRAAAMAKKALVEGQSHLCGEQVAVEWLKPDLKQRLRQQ", "assay": "NMR titration", "details": "NMR: 100 mM potassium phosphate pH 6.6, 1 mM DTT, 298 K (or 20 mM MES pH 6.6, 100 mM NaCl); Supplementary Fig. 3: 25 mM NaCl, 2 mM DTT, pH 6.3, 303 K; recombinant protein; residues 136-227; protein details: N-terminal 6xHis, TEV-cleaved"}, "[2]": {"target": "T4, DND1 extended RRM1 (human) (UniProt Q8IYX4)", "T4 sequence (looked up)": "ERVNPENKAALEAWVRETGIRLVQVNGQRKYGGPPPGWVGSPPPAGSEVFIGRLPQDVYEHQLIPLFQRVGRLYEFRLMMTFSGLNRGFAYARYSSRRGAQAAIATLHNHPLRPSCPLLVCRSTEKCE", "assay": "NMR titration", "details": "NMR: 100 mM potassium phosphate pH 6.6, 1 mM DTT, 298 K (or 20 mM MES pH 6.6, 100 mM NaCl), Supplementary Fig. 3: 25 mM NaCl, 2 mM DTT, pH 6.3, 303 K, recombinant protein, residues 12-139, protein details: N-terminal 6xHis, TEV-cleaved"}, "DND1 RRM12 W215F (human) [3]": {"target": "T2, DND1 RRM12 W215F (human)", "assay": "ITC", "details": "weaker binding, lower bound, N = 0.919; ITC: 100 mM potassium phosphate pH 6.6, 1 mM 2-mercaptoethanol, 25 C; recombinant protein; residues 12-235; protein details: N-terminal 6xHis, TEV-cleaved"}, "[4]": {"target": "T4, DND1 extended RRM1 (human)", "assay": "ITC", "details": "lower bound, ITC: 100 mM potassium phosphate pH 6.6, 1 mM 2-mercaptoethanol, 25 C, recombinant protein, residues 12-139, protein details: N-terminal 6xHis, TEV-cleaved"}, "[5]": {"target": "T5, DND1 RRM12 (tandem RRMs) WT (human) (UniProt Q8IYX4)", "T5 sequence (looked up)": "T1 sequence (looked up) with A186K", "assay": "NMR titration", "details": "NMR: 100 mM potassium phosphate pH 6.6, 1 mM DTT, 298 K (or 20 mM MES pH 6.6, 100 mM NaCl); Supplementary Fig. 3: 25 mM NaCl, 2 mM DTT, pH 6.3, 303 K; recombinant protein; residues 12-235; protein details: N-terminal 6xHis, TEV-cleaved"}, "[6]": {"target": "T5, DND1 RRM12 (tandem RRMs) WT (human)", "assay": "ITC", "details": "ITC: 100 mM potassium phosphate pH 6.6, 1 mM 2-mercaptoethanol, 25 C, recombinant protein, residues 12-235, protein details: N-terminal 6xHis, TEV-cleaved"}, "[7]": {"details": "N set to 1, weak binding, lower bound"}}, "note": "Residue numbers refer to the chain shown, from its start. For some of these results: No signal at the amounts used counts as a negative. For some of these results: At least one verdict rests on a figure or table, not on a statement of the authors. Where a protein sequence is shown, tags need not be part of it. For some of these results: A weaker result is weaker than the reference pair of the same experiment. For some of these results: The exact form of at least one protein or probe is not confirmed.", "data": [{"sequence": "CUUAUUUG", "values": [{"measurement": "binding result", "setting": "DND1 RRM12 K197A (human)", "result": "binds more weakly"}, {"measurement": "binding result", "setting": "DND1 RRM12 W215F (human) [1]", "result": "binds more weakly"}, {"measurement": "binding result", "setting": "DND1 RRM2 (human)", "result": "no binding"}, {"measurement": "binding result", "setting": "[2]", "result": "binds more weakly"}, {"measurement": "Kd", "setting": "DND1 RRM12 W215F (human) [3]", "result": "> 10", "unit": "µM"}, {"measurement": "Kd", "setting": "[4]; N set to 1, weak binding", "result": "> 54", "unit": "µM"}]}, {"sequence": "UUUUUCC", "values": [{"measurement": "binding result", "setting": "[5]", "result": "binds more weakly"}, {"measurement": "Kd", "setting": "[6]; [7]", "result": "> 100", "unit": "µM"}]}, {"sequence": "UCCUUAUUU", "values": [{"measurement": "Kd", "setting": "[6]; table column assigned from order and legend", "result": 1.2, "unit": "µM"}]}, {"sequence": "UUAUUU", "values": [{"measurement": "binding result", "setting": "[2]; smaller shifts than with RRM12", "result": "binds more weakly"}, {"measurement": "Kd", "setting": "[4]; weak binding, table column assigned from order", "result": "> 35", "unit": "µM"}]}, {"sequence": "UUUUUAC", "values": [{"measurement": "binding result", "setting": "[5]", "result": "binds more weakly"}, {"measurement": "Kd", "setting": "[6]; [7]", "result": "> 35", "unit": "µM"}]}]}
